Binding data for 3 molecules are collected here from doi:10.1101/2022.09.20.508788.

Like-named read-outs stand apart in the source and are kept apart here. These are yes or no findings as the source states them, for the method shown. In cells and extracts the contact can be indirect. Some binding calls cover weakened binding; strength is not graded here.

Assay [1] has as its target HA tagged MR1 (Major Histocompatibility Related Protein 1) (UniProt Q95460). The assay can be described thus: co-IP.
The target is the same in assay [2]. Description: co-IP. The source holds these as a separate data set.

On to “Calreticulin (CALR) (from UniProt P27797 18-417)”, for which the binding result in assay [1] is on record as “binds”.

For the molecule SQSTM1/p62 (from UniProt Q13501 1-440), the binding entry in assay [1] is “binds”.

B1: Calnexin (CANX) (protein, UniProt P27824 21-592)
chain: HDGHDDDVIDIEDDLDDVIEEVEDSKPDTTAPPSSPKVTYKAPVPTGEVYFADSFDRGTLSGWILSKAKKDDTDDEIAKYDGKWEVEEMKESKLPGDKGLVLMSRAKHHAISAKLNKPFLFDTKPLIVQYEVNFQNGIECGGAYVKLLSKTPELNLDQFHDKTPYTIMFGPDKCGEDYKLHFIFRHKNPKTGIYEEKHAKRPDADLKTYFTDKKTHLYTLILNPDNSFEILVDQSVVNSGNLLNDMTPPVNPSREIEDPEDRKPEDWDERPKIPDPEAVKPDDWDEDAPAKIPDEEATKPEGWLDDEPEYVPDPDAEKPEDWDEDMDGEWEAPQIANPRCESAPGCGVWQRPVIDNPNYKGKWKPPMIDNPSYQGIWKPRKIPNPDFFEDLEPFRMTPFSAIGLELWSMTSDIFFDNFIICADRRIVDDWANDGWGLKKAADGAAEPGVVGQMIEAAEERPWLWVVYILTVALPVFLVILFCCSGKKQTSGMEYKKTDAPQPDVKEEEEEKEEEKDKGDEEEEGEEKLEEKQKSDAEEDGGTVSQEEEDRKPKAEEDEILNRSPRNRKPRRE
As for B1, the binding entry is reported as “binds weakly” in assay [2] and “binds” in assay [1].
